These are yes or no findings as the source states them, for the method shown. In cells and extracts the contact can be indirect. These calls come from enrichment with a bait or labelling near it, and not all partners need be listed. No binding means not detected with the bait. For part of these data: Tags and fused reporters may be left off the sequences shown.
How the values were obtained:
[1] = molecular target: GS^rhino-ALP2 (35S::GS^rhino-ALP2) (Arabidopsis thaliana); assay: affinity purification with mass spectrometry; two-step tandem affinity purification of GS^rhino-ALP2 from dark grown PSB-D suspension culture cells; non-transgenic cells as control; three replicates
[2] = molecular target: T1, ALP1-GFP (pALP1::ALP1-GFP) (Arabidopsis thaliana) (UniProt Q94K49); assay: affinity purification with mass spectrometry; IP of GFP-tagged bait from inflorescence extracts with GFP-trap agarose beads; 10mM Tris pH 7.5, 150 mM NaCl, 0.5% Igepal, 1% Triton; three independent experiments; 35S::GFP as control
T1 sequence: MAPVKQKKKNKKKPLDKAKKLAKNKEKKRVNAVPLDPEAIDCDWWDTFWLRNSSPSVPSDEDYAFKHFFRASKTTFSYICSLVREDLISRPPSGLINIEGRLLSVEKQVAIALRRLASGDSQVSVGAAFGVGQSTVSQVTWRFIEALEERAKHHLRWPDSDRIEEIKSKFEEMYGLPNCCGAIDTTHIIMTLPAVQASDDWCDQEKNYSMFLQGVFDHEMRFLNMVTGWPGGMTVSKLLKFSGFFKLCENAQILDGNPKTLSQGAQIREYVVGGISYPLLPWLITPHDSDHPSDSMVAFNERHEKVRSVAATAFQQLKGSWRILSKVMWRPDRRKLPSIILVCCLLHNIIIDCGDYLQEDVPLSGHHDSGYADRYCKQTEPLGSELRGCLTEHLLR

The chains behind the UniProt entries cited, without tags or fusion partners. Where a name states a change or a piece, a line headed by the entry shows the natural chain unless it says otherwise.
UniProt F4KH55: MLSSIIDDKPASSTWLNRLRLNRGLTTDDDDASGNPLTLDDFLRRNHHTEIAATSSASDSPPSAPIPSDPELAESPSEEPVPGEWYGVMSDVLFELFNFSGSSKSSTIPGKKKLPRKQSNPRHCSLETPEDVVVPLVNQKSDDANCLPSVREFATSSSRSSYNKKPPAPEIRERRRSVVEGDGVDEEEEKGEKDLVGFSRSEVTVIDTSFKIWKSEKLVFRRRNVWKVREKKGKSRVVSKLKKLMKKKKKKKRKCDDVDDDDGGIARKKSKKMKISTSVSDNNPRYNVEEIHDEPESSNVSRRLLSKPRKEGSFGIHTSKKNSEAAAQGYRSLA

[3] = molecular target: GFP-ALP2 (35S::GFP-ALP2) (Arabidopsis thaliana) (UniProt F4KH55); assay: as above

Measured: binding

B1: VRN5 (endogenous) (protein, UniProt Q9LHF5 1-602)
chain: MDSSSTKSKISHSRKTNKKSNKKHESNGKQQQQQDVDGGGGCLRSSWICKNASCRANVPKEDSFCKRCSCCVCHNFDENKDPSLWLVCEPEKSDDVEFCGLSCHIECAFREVKVGVIALGNLMKLDGCFCCYSCGKVSQILGCWKKQLVAAKEARRRDGLCYRIDLGYRLLNGTSRFSELHEIVRAAKSMLEDEVGPLDGPTARTDRGIVSRLPVAANVQELCTSAIKKAGELSANAGRDLVPAACRFHFEDIAPKQVTLRLIELPSAVEYDVKGYKLWYFKKGEMPEDDLFVDCSRTERRMVISDLEPCTEYTFRVVSYTEAGIFGHSNAMCFTKSVEILKPVDGKEKRTIDLVGNAQPSDREEKSSISSRFQIGQLGKYVQLAEAQEEGLLEAFYNVDTEKICEPPEEELPPRRPHGFDLNVVSVPDLNEEFTPPDSSGGEDNGVPLNSLAEADGGDHDDNCDDAVSNGRRKNNNDCLVISDGSGDDTGFDFLMTRKRKAISDSNDSENHECDSSSIDDTLEKCVKVIRWLEREGHIKTTFRVRFLTWFSMSSTAQEQSVVSTFVQTLEDDPGSLAGQLVDAFTDVVSTKRPNNGVMTSH
no binding: [1] | [2] | [3]

B2: VEL1 (endogenous) (protein, UniProt Q9SUM4 1-714)
chain: MDSSLDGAAGDSSKCSEMSVDEKRQLVYELSKQSHLAAEVLQAWSRQEILQILCAEMGKERKYTGLTKVKIIETLLKIVSEKNSGECEGKKRDSDCLPIQRNTKRQRKVDNPSRYVIPATNIVTSNNASGSCSSVNTKGESTTIYCKNLACRAVLRQEDSFCRRCSCCICRKYDDNKDPSLWLTCSSDPPFEGESCGFSCHLECAFNTEKSGLGKDKQSEGCCFYCVSCGKANSLLECWKKQLTIAKETRRVEVLCYRLFLVQKLLKSSTKYRNLCEVVDEAVKTLEADVGPLTGLPMKMGRGIVNRLHSGPDVQKLCSSALESLETIATTPPDVAALPSPRSSKMQQDCSYVLSNEISADTATTGSTKIRFEDVNATSLTVVLASNEIPSPPNIVHYSIWHRKVPEKDYPEKSTCTLFIPNTRFVVSGLAPASEYCFKVVSYSGTREMGVDEINVLTRSAEEGANCSSAVERSVSPLTNCSTLSSNPSSVEAESNNDYIVPKKPSSKNEDNNSPSVDESAAKRMKRTTDSDIVQIEKDVEQIVLLDDEEQEAVLDKTESETPVVVTTKSLVGNRNSSDASLPITPFRSDEIKNRQARIEISMKDNCNNGDHSANGGTESGLEHCVKIIRQLECSGHIDKNFRQKFLTWYSLRATSQEIRVVKIFIDTFIDDPMALAEQLIDTFDDRVSIKRSAVGGSGASAVVPSGFCMKLWH
no binding: [1] | [2] | [3]

From article PMC7282668
